doi:10.1101/826578
These are yes or no findings as the source states them, for the method shown. For some of these results: Binding seen in cells or lysates may run through a third protein. Some binding calls cover weakened binding; strength is not graded here.

Protein sequences, listed by entry. Tags and fused reporters are not part of them. Lines headed by an entry give the natural chain unless they say otherwise; changes in a name come on top. Chains listed by the source or under a name are the forms on record and can include a tag or linker. Residues count along the entry.
UniProt Q9UNS1: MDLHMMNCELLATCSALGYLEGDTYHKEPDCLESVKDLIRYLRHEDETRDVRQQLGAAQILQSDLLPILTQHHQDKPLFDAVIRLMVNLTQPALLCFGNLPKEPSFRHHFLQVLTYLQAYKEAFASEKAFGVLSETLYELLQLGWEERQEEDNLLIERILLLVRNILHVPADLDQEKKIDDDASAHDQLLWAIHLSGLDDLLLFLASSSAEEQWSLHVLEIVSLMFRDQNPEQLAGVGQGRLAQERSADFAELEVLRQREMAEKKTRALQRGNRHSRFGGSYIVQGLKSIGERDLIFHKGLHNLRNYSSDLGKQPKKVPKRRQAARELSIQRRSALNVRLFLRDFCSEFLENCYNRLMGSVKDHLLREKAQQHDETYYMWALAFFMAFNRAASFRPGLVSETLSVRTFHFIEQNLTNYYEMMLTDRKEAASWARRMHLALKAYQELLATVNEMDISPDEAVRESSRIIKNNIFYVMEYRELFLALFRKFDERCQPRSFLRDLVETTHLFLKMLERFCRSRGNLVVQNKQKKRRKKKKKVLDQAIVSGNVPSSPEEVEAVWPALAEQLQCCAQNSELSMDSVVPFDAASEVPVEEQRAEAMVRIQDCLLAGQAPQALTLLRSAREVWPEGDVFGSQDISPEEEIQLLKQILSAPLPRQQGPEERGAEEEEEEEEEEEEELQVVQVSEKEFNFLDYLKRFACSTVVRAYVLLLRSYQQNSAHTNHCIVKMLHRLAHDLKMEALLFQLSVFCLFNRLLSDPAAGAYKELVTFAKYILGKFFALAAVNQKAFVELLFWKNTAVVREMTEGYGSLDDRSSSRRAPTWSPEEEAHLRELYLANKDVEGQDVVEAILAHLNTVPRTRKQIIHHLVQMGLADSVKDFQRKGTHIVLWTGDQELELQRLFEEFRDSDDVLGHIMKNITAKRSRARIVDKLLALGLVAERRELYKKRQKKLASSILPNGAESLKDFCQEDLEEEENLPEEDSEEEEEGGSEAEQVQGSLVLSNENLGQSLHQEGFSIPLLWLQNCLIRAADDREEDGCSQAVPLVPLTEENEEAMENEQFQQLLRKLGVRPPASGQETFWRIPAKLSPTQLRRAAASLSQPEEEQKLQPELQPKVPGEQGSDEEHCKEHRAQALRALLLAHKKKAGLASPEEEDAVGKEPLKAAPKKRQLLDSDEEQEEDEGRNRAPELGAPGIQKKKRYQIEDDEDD
Flag-tagged human Timeless truncated at the PARP1-binding domain (PARP*): residues 1-1000 of Q9UNS1
human Timeless, optimised construct (1-1208 with residues 239-330 replaced by a (Gly-Ser-Thr)2 linker) (Q9UNS1, form named): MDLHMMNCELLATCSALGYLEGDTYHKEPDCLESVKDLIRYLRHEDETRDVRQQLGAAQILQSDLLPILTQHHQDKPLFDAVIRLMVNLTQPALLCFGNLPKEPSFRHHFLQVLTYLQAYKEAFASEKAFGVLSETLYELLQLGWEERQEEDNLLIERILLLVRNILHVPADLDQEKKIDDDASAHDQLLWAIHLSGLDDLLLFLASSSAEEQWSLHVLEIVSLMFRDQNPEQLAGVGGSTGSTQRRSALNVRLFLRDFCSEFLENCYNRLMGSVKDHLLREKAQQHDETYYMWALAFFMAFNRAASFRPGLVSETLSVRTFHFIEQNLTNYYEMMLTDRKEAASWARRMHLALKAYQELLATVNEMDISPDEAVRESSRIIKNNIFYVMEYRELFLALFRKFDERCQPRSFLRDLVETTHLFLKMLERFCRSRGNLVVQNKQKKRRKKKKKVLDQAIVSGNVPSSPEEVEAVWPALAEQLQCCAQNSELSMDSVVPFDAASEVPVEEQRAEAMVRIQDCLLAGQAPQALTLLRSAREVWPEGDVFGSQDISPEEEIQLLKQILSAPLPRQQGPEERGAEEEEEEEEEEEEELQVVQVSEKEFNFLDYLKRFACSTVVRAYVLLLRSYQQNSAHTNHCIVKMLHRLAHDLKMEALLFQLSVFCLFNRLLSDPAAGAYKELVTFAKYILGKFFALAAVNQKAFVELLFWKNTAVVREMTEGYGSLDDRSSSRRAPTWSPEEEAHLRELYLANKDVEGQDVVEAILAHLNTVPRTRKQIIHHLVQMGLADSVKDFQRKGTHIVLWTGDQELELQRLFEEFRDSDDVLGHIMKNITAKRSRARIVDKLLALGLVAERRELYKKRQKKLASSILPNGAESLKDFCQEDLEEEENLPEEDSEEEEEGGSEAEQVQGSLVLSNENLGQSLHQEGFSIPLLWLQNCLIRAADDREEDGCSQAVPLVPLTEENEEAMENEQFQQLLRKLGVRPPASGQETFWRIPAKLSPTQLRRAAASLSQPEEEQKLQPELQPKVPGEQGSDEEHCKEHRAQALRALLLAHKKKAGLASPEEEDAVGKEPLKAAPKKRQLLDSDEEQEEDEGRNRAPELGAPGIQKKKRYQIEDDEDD
Flag-tagged human Timeless lacking the DNA-binding domain (ΔDBD) (Q9UNS1, form named): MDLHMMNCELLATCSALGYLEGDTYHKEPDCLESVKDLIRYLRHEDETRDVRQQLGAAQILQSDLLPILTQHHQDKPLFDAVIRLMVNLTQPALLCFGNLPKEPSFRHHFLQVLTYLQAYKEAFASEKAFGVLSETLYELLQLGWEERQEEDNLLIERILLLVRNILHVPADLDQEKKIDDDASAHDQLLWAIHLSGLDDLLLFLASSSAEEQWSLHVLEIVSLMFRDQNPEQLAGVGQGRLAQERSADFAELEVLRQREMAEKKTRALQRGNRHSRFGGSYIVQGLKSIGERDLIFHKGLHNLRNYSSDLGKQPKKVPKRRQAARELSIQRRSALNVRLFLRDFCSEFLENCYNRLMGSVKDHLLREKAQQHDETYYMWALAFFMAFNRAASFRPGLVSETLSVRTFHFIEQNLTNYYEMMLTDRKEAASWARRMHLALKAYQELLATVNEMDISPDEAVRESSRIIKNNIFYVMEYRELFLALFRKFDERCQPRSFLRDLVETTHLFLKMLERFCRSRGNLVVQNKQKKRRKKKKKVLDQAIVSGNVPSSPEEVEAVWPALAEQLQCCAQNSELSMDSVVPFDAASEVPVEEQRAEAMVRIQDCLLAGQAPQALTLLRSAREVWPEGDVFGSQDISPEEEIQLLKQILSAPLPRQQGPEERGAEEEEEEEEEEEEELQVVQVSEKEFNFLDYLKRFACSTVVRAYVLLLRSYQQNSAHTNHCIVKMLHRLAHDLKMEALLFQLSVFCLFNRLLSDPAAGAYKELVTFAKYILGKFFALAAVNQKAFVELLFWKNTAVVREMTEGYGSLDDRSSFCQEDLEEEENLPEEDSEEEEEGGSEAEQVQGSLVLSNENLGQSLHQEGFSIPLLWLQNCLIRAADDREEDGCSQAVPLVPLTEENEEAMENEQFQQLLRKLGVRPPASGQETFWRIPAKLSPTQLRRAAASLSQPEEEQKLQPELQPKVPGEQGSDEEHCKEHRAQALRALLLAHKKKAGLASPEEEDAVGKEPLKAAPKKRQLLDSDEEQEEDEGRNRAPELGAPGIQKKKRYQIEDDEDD

Legend:
[1] = target: human Timeless, optimised construct (1-1208 with residues 239-330 replaced by a (Gly-Ser-Thr)2 linker) (human) (UniProt Q9UNS1); experiment: co-purification
[2] = target: Flag-tagged human Timeless truncated at the PARP1-binding domain (PARP*) (human) (UniProt Q9UNS1); experiment: co-IP
[3] = target: Flag-tagged human Timeless lacking the DNA-binding domain (ΔDBD) (human) (UniProt Q9UNS1); experiment: co-IP
[4] = target: Flag-tagged human Timeless, wild type (pcDNA4-Flag-hTimeless) (human) (UniProt Q9UNS1); experiment: co-IP

binding [1]	binding [2]	binding [3]	binding [4]	Binder
binds	–	–	–	full-length human Tipin (1-301) (protein, UniProt Q9BVW5 1-301) MLEPQENGVIDLPDYEHVEDETFPPFPPPASPERQDGEGTEPDEESGNGAPVRVPPKRTVKRNIPKLDAQRLISERGLPALRHVFDKAKFKGKGHEAEDLKMLIRHMEHWAHRLFPKLQFEDFIDRVEYLGSKKEVQTCLKRIRLDLPILHEDFVSNNDEVAENNEHDVTSTELDPFLTNLSESEMFASELSRSLTEEQQQRIERNKQLALERRQAKLLSNSQTLGNDMLMNTPRAHTVEEVNTDEDQKEESNGLNEDILDNPCNDAIANTLNEEETLLDQSFKNVQQQLDATSRNITEAR
–	binds	binds	binds	human DDX11 helicase (pcDNA3-hDDX11) (enzyme, UniProt Q96FC9 1-970) MANETQKVGAIHFPFPFTPYSIQEDFMAELYRVLEAGKIGIFESPTGTGKSLSLICGALSWLRDFEQKKREEEARLLETGTGPLHDEKDESLCLSSSCEGAAGTPRPAGEPAWVTQFVQKKEERDLVDRLKAEQARRKQREERLQQLQHRVQLKYAAKRLRQEEEERENLLRLSREMLETGPEAERLEQLESGEEELVLAEYESDEEKKVASRVDEDEDDLEEEHITKIYYCSRTHSQLAQFVHEVKKSPFGKDVRLVSLGSRQNLCVNEDVKSLGSVQLINDRCVDMQRSRHEKKKGAEEEKPKRRRQEKQAACPFYNHEQMGLLRDEALAEVKDMEQLLALGKEARACPYYGSRLAIPAAQLVVLPYQMLLHAATRQAAGIRLQDQVVIIDEAHNLIDTITGMHSVEVSGSQLCQAHSQLLQYVERYGKRLKAKNLMYLKQILYLLEKFVAVLGGNIKQNPNTQSLSQTGTELKTINDFLFQSQIDNINLFKVQRYCEKSMISRKLFGFTERYGAVFSSREQPKLAGFQQFLQSLQPRTTEALAAPADESQASTLRPASPLMHIQGFLAALTTANQDGRVILSRQGSLSQSTLKFLLLNPAVHFAQVVKECRAVVIAGGTMQPVSDFRQQLLACAGVEAERVVEFSCGHVIPPDNILPLVICSGISNQPLEFTFQKRELPQMMDEVGRILCNLCGVVPGGVVCFFPSYEYLRQVHAHWEKGGLLGRLAARKKIFQEPKSAHQVEQVLLAYSRCIQACGQERGQVTGALLLSVVGGKMSEGINFSDNLGRCVVMVGMPFPNIRSAELQEKMAYLDQTLSPRPGTPREGSGGEPVHEGRQPVHRQGHQAPEGFCQRSAPGPAICPAPCPGQAAGLDPSPCGGQSYLWPRHCCCAEVSPGEVGLFLMGNHTTAWRRALPLSCPLETVFVVGVVCGDPVTKVKPRRRVWSPECCQDPGTGVSSRRRKWGNPE
